Results deposited as PubChem BioAssay AID1259405 (NCATS, 2018)

- Test: 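Silenced genes that increase secreted GFP made by CHO cells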 (primary screen)
- Cells: Chinese hamster CHO-K1 ovary cells with stable secreted eGFP expression
- Reagent: single siRNA against mouse genes, 0.8 pmol siRNA per well (2 µl of 400 nM stock)
- Timing: 3 days
- Detection: 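Percent of the per-plate non-targeting control median for intracellular GFP per well by laser scanning cytometry and for cell viability by ATP luminescence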
- Scale: GFP, % of control: higher = more GFP per well, higher productivity; viability (ATP), % of control: higher = more viable cells (more ATP)
- Call rule: 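Called active when intracellular GFP, relative to negative control, is at or above 120%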
Here is an unselected part of about 50,000 deposited reagents. In the full data, about 4,000 (8%) were called active. 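Mouse siRNA library applied to hamster cells; one well for each siRNA.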 The numbers tell different reagents against one gene apart.

Cyp2b9 #1
- GFP, % of control: 87.5
- viability (ATP), % of control: 59.5
- Call: inactive

Cyp2b9 #2
- GFP, % of control: 62.5
- viability (ATP), % of control: 72.1
- Call: inactive

Cyp2b9 #3
- GFP, % of control: 71.2
- viability (ATP), % of control: 80.1
- Call: inactive

Sec16a #1
- GFP, % of control: 43.8
- viability (ATP), % of control: 76.7
- Call: inactive

Sec16a #2
- GFP, % of control: 69.3
- viability (ATP), % of control: 79.9
- Call: inactive

Sec16a #3
- GFP, % of control: 84.3
- viability (ATP), % of control: 91.9
- Call: inactive

Uts2r #1
- GFP, % of control: 95.2
- viability (ATP), % of control: 58.6
- Call: inactive

Uts2r #2
- GFP, % of control: 44.2
- viability (ATP), % of control: 33.3
- Call: inactive

Uts2r #3
- GFP, % of control: 58.5
- viability (ATP), % of control: 39.1
- Call: inactive

Ms4a2 #1
- GFP, % of control: 68
- viability (ATP), % of control: 64.1
- Call: inactive

Ms4a2 #2
- GFP, % of control: 129
- viability (ATP), % of control: 127
- Call: active

Ms4a2 #3
- GFP, % of control: 45.2
- viability (ATP), % of control: 55.3
- Call: inactive

Or2a20 #1
- GFP, % of control: 85.7
- viability (ATP), % of control: 47.7
- Call: inactive

Or2a20 #2
- GFP, % of control: 58.2
- viability (ATP), % of control: 70.8
- Call: inactive

Or2a20 #3
- GFP, % of control: 68.2
- viability (ATP), % of control: 63.7
- Call: inactive

Continued; the last 3 above are carried over.
Or2a20 #1
- GFP, % of control: 85.7
- viability (ATP), % of control: 47.7
- Call: inactive

Or2a20 #2
- GFP, % of control: 58.2
- viability (ATP), % of control: 70.8
- Call: inactive

Or2a20 #3
- GFP, % of control: 68.2
- viability (ATP), % of control: 63.7
- Call: inactive

Asnsd1 #1
- GFP, % of control: 57.8
- viability (ATP), % of control: 69.9
- Call: inactive

Asnsd1 #2
- GFP, % of control: 104
- viability (ATP), % of control: 89.6
- Call: inactive

Asnsd1 #3
- GFP, % of control: 124
- viability (ATP), % of control: 130
- Call: active

Nsa2 #1
- GFP, % of control: 43.8
- viability (ATP), % of control: 57.4
- Call: inactive

Nsa2 #2
- GFP, % of control: 52.6
- viability (ATP), % of control: 64.6
- Call: inactive

Nsa2 #3
- GFP, % of control: 56
- viability (ATP), % of control: 106
- Call: inactive

Paics #1
- GFP, % of control: 113
- viability (ATP), % of control: 113
- Call: inactive

Paics #2
- GFP, % of control: 62.8
- viability (ATP), % of control: 56.4
- Call: inactive

Paics #3
- GFP, % of control: 68.4
- viability (ATP), % of control: 74.9
- Call: inactive

Dhx29 #1
- GFP, % of control: 58.8
- viability (ATP), % of control: 60
- Call: inactive

Dhx29 #2
- GFP, % of control: 59.5
- viability (ATP), % of control: 41.5
- Call: inactive

Dhx29 #3
- GFP, % of control: 131
- viability (ATP), % of control: 113
- Call: active

Fbln5 #1
- GFP, % of control: 104
- viability (ATP), % of control: 124
- Call: inactive

Fbln5 #2
- GFP, % of control: 97.3
- viability (ATP), % of control: 89.2
- Call: inactive

Atp2b2 #1
- GFP, % of control: 38.2
- viability (ATP), % of control: 70.8
- Call: inactive

Atp2b2 #2
- GFP, % of control: 56.9
- viability (ATP), % of control: 69.9
- Call: inactive

Atp2b2 #3
- GFP, % of control: 36.5
- viability (ATP), % of control: 52.2
- Call: inactive

Saxo6 #1
- GFP, % of control: 107
- viability (ATP), % of control: 73.4
- Call: inactive

Saxo6 #2
- GFP, % of control: 73.5
- viability (ATP), % of control: 36.6
- Call: inactive

Saxo6 #3
- GFP, % of control: 90.2
- viability (ATP), % of control: 92.3
- Call: inactive

Agrn #1
- GFP, % of control: 125
- viability (ATP), % of control: 95.5
- Call: active

Agrn #2
- GFP, % of control: 77.5
- viability (ATP), % of control: 45.1
- Call: inactive

Agrn #3
- GFP, % of control: 114
- viability (ATP), % of control: 140
- Call: inactive

Guf1 #1
- GFP, % of control: 51.8
- viability (ATP), % of control: 53.5
- Call: inactive

Guf1 #2
- GFP, % of control: 47.8
- viability (ATP), % of control: 20.1
- Call: inactive

Guf1 #3
- GFP, % of control: 72.6
- viability (ATP), % of control: 76.2
- Call: inactive
